The results in this text go back to publication PMC9576747.

Sequences of proteins named here, by UniProt entry; tags and fusion partners are left off. A change or cut given only in a name is not applied to a line headed by its entry. A line that says so, or that is headed by a name, gives the form on record, which may keep a tag or linker.
SERCA2a (P16615-2, form named): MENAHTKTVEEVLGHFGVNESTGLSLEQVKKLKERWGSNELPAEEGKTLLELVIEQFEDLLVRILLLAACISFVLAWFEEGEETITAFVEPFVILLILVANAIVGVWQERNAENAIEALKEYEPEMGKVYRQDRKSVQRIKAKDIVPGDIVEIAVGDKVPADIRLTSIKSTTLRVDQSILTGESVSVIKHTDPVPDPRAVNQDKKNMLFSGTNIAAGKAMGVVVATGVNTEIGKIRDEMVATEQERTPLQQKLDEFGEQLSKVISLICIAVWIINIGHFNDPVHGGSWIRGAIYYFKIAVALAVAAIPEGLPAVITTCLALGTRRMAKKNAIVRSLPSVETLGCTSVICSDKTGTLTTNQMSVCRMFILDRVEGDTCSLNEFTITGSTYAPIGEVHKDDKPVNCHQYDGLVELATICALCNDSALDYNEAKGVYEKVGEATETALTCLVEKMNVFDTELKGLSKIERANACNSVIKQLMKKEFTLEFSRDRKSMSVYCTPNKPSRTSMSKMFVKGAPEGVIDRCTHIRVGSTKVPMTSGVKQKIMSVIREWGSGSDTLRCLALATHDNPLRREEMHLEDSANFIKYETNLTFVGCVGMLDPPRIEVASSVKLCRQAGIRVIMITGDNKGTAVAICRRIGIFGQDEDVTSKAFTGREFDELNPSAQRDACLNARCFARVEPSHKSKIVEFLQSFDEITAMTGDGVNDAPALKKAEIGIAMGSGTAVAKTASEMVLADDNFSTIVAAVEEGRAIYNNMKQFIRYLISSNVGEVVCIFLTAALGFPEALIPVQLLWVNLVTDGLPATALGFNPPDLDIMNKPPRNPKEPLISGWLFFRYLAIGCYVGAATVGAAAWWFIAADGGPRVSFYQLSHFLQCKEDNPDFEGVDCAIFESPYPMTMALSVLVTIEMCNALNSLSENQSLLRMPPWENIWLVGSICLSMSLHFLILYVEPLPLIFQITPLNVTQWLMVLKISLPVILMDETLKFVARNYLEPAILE

These are yes or no findings as the source states them, for the method shown. Binding seen in cells or lysates may run through a third protein. A yes stands for co-enrichment or nearness to the bait. Other partners may have been found. Where a sequence is shown, tags or fusion partners need not be part of it.

In this assay the target is T1, Flag-tagged variant of mouse ATRAP (angiotensin II type-1 receptor-associated protein) (mouse) (UniProt Q9WVK0).
T1 sequence: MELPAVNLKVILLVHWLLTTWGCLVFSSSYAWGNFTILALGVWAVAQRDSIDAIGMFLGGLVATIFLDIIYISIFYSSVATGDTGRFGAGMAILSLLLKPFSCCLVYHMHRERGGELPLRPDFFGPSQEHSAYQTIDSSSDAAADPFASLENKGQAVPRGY
Put plainly: affinity purification with mass spectrometry; anti-DYKKKK (Flag) magnetic beads on lysate of Dox-induced HEK293_F-mATRAP cells (T-lysis buffer: 20 mM HEPES NaOH, 150 mM NaCl, 0.05% Tween-20, 2.5 mM MgCl2, 1 mM DTT), 2 h at 4 °C, Flag peptide elution, SDS-PAGE, LC-MS/MS; Dox- cells as control.

On to SERCA2a (from UniProt P16615-2 1-997), for which the binding result is given as “binds”.
